# Measurements as given in the supplement of paper PMC12819154, “High-throughput peptide-centric local stability assay extends protein–ligand identification to membrane proteins, tissues and bacteria” (Nature Structural & Molecular Biology, 2025).
# Chains of the proteins cited; added tags and fusions are not shown. Lines headed by an entry give the natural chain unless they say otherwise; changes in a name come on top.
# UniProt Q13472: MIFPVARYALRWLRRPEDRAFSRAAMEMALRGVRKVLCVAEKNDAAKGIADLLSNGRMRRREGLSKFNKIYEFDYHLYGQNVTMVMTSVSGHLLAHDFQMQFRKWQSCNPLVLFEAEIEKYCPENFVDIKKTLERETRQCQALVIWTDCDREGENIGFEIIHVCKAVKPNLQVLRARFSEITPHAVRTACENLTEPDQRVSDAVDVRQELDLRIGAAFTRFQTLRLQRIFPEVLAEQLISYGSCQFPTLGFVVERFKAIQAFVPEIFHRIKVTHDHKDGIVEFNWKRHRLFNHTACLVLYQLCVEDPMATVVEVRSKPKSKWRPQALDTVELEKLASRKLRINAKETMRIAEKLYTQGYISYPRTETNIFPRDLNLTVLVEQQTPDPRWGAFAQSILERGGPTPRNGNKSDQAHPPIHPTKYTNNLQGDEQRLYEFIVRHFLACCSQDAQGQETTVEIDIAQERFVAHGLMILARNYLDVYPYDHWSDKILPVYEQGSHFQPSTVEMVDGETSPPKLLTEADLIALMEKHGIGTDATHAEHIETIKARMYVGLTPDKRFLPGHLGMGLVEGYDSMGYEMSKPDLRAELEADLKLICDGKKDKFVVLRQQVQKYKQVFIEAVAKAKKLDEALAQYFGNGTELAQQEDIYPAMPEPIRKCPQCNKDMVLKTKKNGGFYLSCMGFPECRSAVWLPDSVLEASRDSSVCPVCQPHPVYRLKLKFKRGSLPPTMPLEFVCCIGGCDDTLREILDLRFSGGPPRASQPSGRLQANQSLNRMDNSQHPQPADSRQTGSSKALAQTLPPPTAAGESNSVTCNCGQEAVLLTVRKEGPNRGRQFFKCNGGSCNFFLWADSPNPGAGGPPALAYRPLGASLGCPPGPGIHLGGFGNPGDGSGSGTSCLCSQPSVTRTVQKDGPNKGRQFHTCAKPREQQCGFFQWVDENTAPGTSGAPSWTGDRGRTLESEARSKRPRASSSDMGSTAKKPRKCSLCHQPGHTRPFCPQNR
# UniProt Q14691: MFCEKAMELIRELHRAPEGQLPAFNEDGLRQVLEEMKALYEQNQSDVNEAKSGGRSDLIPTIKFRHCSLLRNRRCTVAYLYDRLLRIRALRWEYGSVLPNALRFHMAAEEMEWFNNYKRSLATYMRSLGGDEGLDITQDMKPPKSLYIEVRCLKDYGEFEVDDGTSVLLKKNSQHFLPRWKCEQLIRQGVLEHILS
# UniProt Q13185: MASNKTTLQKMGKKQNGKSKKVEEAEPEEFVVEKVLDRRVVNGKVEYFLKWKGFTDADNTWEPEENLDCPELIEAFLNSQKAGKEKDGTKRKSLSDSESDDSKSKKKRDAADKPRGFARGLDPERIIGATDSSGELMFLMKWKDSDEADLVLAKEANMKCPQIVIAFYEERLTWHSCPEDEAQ
# UniProt Q13686: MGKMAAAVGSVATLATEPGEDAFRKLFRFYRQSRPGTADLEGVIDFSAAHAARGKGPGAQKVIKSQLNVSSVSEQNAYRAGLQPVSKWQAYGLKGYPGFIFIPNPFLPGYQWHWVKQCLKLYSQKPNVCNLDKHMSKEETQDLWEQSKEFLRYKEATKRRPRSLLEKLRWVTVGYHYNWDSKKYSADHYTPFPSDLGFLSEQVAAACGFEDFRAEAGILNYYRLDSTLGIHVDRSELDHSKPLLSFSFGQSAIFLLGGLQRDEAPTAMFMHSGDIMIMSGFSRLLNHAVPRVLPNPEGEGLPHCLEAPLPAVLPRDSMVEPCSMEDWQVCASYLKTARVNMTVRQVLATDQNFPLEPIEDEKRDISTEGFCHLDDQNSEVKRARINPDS
# UniProt Q14574: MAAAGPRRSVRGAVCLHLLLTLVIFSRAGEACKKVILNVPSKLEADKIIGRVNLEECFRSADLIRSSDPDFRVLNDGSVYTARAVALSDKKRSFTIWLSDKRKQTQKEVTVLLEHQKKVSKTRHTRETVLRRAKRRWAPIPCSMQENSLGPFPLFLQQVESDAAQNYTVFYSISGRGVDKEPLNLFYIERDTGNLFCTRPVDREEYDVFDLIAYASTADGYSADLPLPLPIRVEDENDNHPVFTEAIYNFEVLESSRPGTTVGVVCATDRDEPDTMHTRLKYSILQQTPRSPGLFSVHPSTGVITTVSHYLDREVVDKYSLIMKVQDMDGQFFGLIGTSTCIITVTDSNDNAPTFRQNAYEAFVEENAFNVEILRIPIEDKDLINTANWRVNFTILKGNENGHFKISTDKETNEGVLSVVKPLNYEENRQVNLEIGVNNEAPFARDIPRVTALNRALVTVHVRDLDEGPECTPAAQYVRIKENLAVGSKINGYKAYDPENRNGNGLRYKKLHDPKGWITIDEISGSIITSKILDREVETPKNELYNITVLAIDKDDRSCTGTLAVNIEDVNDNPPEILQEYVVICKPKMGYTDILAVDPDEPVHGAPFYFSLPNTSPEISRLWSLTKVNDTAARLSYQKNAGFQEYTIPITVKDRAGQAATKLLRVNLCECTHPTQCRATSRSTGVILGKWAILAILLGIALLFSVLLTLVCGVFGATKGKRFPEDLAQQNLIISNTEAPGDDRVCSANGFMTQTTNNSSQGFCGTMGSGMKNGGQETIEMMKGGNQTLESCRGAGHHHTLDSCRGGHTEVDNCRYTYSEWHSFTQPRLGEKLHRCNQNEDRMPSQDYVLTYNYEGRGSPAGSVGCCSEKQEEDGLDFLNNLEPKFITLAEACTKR
# UniProt Q14315, whole entry: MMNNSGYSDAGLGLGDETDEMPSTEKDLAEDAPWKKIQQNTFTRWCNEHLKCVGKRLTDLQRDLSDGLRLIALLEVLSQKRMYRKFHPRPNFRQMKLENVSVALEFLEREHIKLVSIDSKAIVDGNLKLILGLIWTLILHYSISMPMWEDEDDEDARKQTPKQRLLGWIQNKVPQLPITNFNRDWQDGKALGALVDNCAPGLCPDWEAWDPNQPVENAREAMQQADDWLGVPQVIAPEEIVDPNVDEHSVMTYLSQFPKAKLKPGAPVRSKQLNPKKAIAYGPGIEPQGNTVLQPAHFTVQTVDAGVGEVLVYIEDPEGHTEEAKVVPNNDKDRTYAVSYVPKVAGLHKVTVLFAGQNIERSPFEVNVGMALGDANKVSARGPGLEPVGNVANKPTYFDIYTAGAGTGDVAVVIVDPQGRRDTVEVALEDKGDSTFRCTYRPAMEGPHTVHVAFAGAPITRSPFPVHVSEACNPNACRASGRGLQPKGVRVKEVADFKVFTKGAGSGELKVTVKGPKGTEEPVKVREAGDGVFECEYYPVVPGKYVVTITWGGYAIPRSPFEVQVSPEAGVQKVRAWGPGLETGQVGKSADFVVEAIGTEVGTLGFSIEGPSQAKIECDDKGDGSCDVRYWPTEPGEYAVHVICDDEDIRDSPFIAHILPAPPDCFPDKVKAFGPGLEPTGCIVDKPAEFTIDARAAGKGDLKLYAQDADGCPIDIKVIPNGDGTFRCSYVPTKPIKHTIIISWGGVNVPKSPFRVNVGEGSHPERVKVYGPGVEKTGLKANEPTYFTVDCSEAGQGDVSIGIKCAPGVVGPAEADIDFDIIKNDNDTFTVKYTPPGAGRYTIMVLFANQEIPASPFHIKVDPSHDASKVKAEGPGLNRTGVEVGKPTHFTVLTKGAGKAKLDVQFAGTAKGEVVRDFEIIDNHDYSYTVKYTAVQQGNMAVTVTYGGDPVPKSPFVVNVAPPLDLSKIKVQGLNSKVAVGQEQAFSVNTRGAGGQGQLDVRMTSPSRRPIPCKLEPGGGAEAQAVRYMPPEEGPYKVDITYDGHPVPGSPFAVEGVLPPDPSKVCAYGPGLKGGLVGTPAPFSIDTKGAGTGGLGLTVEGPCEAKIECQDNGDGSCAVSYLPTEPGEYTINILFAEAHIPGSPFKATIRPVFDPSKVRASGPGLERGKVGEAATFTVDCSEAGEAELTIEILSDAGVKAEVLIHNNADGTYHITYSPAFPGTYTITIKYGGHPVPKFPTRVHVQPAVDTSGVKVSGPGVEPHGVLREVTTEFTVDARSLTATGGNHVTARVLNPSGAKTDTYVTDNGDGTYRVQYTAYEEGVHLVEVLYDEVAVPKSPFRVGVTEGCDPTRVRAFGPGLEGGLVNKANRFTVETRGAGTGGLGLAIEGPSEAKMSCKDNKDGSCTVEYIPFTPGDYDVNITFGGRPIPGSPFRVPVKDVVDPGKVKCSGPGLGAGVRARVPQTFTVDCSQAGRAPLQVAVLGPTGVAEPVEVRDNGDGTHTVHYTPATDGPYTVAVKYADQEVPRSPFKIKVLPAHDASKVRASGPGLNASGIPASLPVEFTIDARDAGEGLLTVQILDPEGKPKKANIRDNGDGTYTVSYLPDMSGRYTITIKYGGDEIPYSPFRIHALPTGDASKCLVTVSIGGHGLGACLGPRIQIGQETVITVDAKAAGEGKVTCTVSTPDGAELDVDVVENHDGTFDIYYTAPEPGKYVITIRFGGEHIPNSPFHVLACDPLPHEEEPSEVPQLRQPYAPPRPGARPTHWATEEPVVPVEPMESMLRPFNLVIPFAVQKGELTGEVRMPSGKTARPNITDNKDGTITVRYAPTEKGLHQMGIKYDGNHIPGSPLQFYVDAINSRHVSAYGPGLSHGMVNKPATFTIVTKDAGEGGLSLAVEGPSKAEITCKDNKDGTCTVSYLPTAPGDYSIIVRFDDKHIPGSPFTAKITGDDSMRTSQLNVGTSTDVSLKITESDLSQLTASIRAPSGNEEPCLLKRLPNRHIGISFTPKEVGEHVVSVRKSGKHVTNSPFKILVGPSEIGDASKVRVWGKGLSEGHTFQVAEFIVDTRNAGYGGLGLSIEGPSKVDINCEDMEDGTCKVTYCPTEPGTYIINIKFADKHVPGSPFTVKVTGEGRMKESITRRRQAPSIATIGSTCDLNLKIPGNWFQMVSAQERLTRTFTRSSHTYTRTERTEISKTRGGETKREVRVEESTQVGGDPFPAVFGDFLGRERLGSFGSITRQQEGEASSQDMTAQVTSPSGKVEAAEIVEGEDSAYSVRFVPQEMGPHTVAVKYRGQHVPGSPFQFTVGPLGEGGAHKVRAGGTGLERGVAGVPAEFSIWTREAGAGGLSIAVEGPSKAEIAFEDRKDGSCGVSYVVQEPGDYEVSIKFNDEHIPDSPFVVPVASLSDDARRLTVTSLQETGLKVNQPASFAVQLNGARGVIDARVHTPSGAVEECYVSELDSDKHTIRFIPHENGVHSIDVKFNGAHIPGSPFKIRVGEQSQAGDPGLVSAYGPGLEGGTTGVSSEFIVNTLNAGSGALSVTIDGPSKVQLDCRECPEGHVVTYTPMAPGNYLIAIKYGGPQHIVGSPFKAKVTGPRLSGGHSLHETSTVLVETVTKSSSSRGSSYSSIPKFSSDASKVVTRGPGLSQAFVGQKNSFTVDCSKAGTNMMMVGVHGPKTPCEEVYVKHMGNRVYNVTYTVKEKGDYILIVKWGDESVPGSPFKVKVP
# UniProt Q13546: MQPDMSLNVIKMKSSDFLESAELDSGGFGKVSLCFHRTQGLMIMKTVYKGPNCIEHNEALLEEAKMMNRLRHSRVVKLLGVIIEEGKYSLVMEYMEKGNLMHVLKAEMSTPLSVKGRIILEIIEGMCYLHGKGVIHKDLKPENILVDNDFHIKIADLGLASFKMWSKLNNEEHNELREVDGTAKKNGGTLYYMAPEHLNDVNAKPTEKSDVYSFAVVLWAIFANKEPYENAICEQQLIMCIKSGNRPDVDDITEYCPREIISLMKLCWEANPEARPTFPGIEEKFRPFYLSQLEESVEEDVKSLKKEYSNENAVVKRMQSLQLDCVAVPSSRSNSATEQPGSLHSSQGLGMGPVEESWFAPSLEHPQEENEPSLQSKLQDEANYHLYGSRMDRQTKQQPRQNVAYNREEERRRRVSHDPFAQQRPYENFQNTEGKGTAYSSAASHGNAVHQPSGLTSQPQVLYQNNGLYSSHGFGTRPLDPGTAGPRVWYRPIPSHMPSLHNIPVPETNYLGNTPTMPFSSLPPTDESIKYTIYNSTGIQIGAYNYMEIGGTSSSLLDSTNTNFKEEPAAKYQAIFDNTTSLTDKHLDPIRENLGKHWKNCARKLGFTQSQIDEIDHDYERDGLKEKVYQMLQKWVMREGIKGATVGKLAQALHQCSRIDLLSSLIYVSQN
# UniProt Q13277: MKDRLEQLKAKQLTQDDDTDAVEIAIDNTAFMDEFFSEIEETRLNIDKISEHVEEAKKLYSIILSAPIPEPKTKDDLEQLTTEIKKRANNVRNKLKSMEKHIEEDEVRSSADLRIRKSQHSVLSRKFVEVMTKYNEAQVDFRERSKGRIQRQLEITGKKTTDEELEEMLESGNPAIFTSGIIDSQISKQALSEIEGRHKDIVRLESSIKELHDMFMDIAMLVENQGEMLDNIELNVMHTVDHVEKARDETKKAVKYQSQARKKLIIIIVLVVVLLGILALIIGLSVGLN
# UniProt Q14061: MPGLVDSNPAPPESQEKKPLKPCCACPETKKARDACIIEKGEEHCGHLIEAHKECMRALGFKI
# The other results are listed elsewhere or left out. Small differences around the control level are noise.
# Compound: Cc1nc(Nc2ncc(C(=O)Nc3c(C)cccc3Cl)s2)cc(N2CCN(CCO)CC2)n1 [dasatinib]
# Experiment: log2 fold change of tryptic peptide abundance, ligand vs vehicle (limited proteolysis) (log2 ratio); higher = more trypsin-susceptible (destabilized)
# Settings: ligand concentration: 5 uM; sample: K562 cleared lysate
row,Target,log2 fold change
1,"DDX10 (peptide sequence: SQADKVIEPR, peptide start residue: 527) (UniProt Q13206)",-0.213
2,"TOP3A (peptide sequence: KVLCVAEKNDAAK, peptide start residue: 35) (UniProt Q13472)",-0.562
3,"SNTB2 (peptide sequence: DAWASPCHSYPLVATR, peptide start residue: 368) (UniProt Q13425)",0.578
4,"RAPGEF1 (peptide sequence: VVDNSPPPALPPK, peptide start residue: 277) (UniProt Q13905)",-1.43
5,"GINS1 (peptide sequence: NSQHFLPR, peptide start residue: 172) (UniProt Q14691)",0.207
6,"USP10 (peptide sequence: IAELLENVTLIHKPVSLQPR, peptide start residue: 396) (UniProt Q14694)",0.0873
7,"TDG (peptide sequence: CLFMSGLSEVQLNHMDDHTLPGK, peptide start residue: 162) (UniProt Q13569)",0.978
8,"CBX3 (peptide sequence: KSLSDSESDDSKSK, peptide start residue: 92) (UniProt Q13185)",0.429
9,"SAFB2 (peptide sequence: NLWVSGLSSTTR, peptide start residue: 408) (UniProt Q14151)",0.294
10,"BOP1 (peptide sequence: KLMPNCK, peptide start residue: 615) (UniProt Q14137)",0.504
11,"ALKBH1 (peptide sequence: LYSQKPNVCNLDK, peptide start residue: 121) (UniProt Q13686)",-0.404
12,"CAMK1 (peptide sequence: QAFNATAVVR, peptide start residue: 305) (UniProt Q14012)",0.0726
13,"NAE1 (peptide sequence: EHFQSYDLDHMEKK, peptide start residue: 194) (UniProt Q13564)",-0.502
14,"DYNC1I2 (peptide sequence: QQILHSEEFLSFFDHSTR, peptide start residue: 214) (UniProt Q13409)",0.123
15,"SELENBP1 (peptide sequence: TKLVLPSLISSR, peptide start residue: 92) (UniProt Q13228)",0.374
16,"CBX2 (peptide sequence: GVPATNPAPGK, peptide start residue: 380) (UniProt Q14781)",0.347
17,"UniProt Q14CX7 (peptide sequence: MAIQQADKLLKK, peptide start residue: 29)",0.0964
18,"TTLL4 (peptide sequence: MAPEHVTAQK, peptide start residue: 969) (UniProt Q14679)",0.707
19,"UniProt Q13474 (peptide sequence: MQILEDHNK, peptide start residue: 3332)",-0.2
20,"UniProt Q14574 (peptide sequence: GAGHHHTLDSCR, peptide start residue: 799)",-0.384
21,"DIP2A (peptide sequence: QKQPEVGPASMIVGNLVAGKR, peptide start residue: 943) (UniProt Q14689)",0.325
22,"UniProt Q13118 (peptide sequence: MEMISERPK, peptide start residue: 16)",0.385
23,"DNAJC3 (peptide sequence: ICHCFSK, peptide start residue: 312) (UniProt Q13217)",-0.387
24,"SMC1A (peptide sequence: RIDEINK, peptide start residue: 469) (UniProt Q14683)",0.182
25,"FLNC (peptide sequence: LTVTSLQETGLK, peptide start residue: 2411) (UniProt Q14315)",0.132
26,"RIPK1 (peptide sequence: RVSHDPFAQQRPYENFQNTEGK, peptide start residue: 414) (UniProt Q13546)",-0.132
27,"STX3 (peptide sequence: SQHSVLSR, peptide start residue: 118) (UniProt Q13277)",-0.394
28,"COX17 (peptide sequence: KPLKPCCACPETK, peptide start residue: 18) (UniProt Q14061)",-0.284

# A second format for part of the listing above:
row | Target | log2 fold change
19 | UniProt Q13474 (peptide sequence: MQILEDHNK, peptide start residue: 3332) | -0.2
22 | UniProt Q13118 (peptide sequence: MEMISERPK, peptide start residue: 16) | 0.385
